Test results: PMC8152669
These are yes or no findings as the source states them, for the method shown. In cells and extracts the contact can be indirect. Some binding calls cover weakened binding; strength is not graded here.

Amino acid sequences for entries named in this document (tags omitted).
UniProt P46937: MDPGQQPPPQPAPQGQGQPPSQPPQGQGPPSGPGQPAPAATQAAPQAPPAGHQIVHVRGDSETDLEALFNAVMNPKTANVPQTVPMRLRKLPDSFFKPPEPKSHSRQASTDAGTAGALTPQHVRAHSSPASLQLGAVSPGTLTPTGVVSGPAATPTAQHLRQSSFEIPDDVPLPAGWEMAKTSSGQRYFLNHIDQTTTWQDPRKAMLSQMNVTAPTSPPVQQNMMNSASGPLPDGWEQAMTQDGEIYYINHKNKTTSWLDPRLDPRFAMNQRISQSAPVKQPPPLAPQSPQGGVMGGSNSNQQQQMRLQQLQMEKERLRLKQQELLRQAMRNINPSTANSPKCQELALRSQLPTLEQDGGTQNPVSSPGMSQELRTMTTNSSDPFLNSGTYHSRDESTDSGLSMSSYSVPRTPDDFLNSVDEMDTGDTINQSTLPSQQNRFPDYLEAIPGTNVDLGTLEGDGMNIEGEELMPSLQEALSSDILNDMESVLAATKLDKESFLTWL
UniProt Q93009: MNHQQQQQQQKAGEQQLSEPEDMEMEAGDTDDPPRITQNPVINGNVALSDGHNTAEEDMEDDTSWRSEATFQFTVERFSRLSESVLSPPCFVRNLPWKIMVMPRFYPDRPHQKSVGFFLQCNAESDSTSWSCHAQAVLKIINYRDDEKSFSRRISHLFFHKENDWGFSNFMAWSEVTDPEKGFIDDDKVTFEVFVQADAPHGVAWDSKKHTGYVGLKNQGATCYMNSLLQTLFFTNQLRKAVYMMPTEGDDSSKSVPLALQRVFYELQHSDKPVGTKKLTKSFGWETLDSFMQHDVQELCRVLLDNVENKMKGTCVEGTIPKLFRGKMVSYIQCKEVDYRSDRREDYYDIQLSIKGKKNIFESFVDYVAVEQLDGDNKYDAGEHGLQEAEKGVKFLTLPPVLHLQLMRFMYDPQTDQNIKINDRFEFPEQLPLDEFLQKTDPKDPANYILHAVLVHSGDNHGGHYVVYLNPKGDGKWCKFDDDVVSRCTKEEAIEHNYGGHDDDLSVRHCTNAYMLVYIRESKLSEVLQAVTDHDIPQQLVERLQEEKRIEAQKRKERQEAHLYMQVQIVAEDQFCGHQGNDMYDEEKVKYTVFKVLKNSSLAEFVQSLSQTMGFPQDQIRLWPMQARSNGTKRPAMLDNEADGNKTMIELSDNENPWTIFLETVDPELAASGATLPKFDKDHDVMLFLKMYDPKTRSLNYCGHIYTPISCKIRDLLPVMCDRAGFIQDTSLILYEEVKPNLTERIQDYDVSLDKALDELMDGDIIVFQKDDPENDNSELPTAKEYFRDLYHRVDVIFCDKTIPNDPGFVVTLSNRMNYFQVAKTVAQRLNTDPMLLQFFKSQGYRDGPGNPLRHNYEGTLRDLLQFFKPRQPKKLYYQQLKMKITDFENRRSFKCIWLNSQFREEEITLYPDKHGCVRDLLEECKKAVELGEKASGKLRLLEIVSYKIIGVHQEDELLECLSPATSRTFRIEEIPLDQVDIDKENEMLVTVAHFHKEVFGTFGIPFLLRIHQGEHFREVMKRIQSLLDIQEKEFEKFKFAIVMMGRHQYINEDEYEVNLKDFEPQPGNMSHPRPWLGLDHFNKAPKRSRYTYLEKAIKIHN

Molecular target: Flag-YAP (Yes-associated protein) (UniProt P46937)
Assay: co-IP; 293T cells co-transfected with Flag-YAP and HA-USP7; lysed in IP lysis buffer; immunoprecipitated with magnetic beads and FLAG antibody (Pierce Direct Magnetic IP/Co-IP kit); immunoblotting; in some panels cells were cultured with different serine concentrations and treated with MG132 (10 uM, 6 h)

binding: binds
Substance: HA-USP7 (from UniProt Q93009 1-1102) (enzyme)
